# Assay results taken from US10047050B2, “3,4-di-substituted pyridine compound, methods of using and compositions comprising the same” (ARDEA BIOSCIENCES, INC., priority 2011, dated 2018).
# Where “and” joins values, the source holds several entries; their conditions need not be identical. Equal entries are not always repeated. Further values from the same series stand in other lists.
# Test system: serum uric acid
# Test: Multi-dose Phase I clinical trial, serum uric acid (sUA), once daily for 10 days
# Type: in vivo, human
# Settings: group 9, 10 mg once daily for 10 days, individual subjects 3-11 (active)
# Text: A Phase 1, Randomized, Double-Blind, Placebo-Controlled Study to Evaluate Safety, Tolerability, Pharmacokinetics and Preliminary Food Effect of Multiple Rising Doses of a URAT1 Inhibitor, in Healthy Adult Male Volunteers.
# Fasted subjects receive oral doses of active or placebo, once daily, for 10 days, at the following doses:
# 36 subjects in 3 dose groups, 12 subjects/group, are randomized […] to receive active (9/group) or placebo ([…]). All study procedures are the same regardless of whether subject receives active or placebo. Total duration of subject participation, including screening period, is ˜2-4 weeks, and the total volume of blood collected from each subject during the entire study <500 mL, (less than typically collected during a volunteer blood donation).
# 5 mg, active and placebo, tablets packaged in 35 count HDPE bottles, stored at controlled room temperature (15-30° C.). Placebo tablets are designed to match the active tablets—identical size, form, taste, and color, and containing the same excipients. 1 mg doses were administered as oral solutions.
# Subjects dosed in the morning of Days 1-10 with ˜240 mL of room temp water.
# Urine, serum and plasma samples collected periodically
# PD samples frozen (−20° C.) and stored; all samples from a given subject assayed in a single analytical run.
structure (smiles),measurement,setting,value
CC(C)(Sc1ccncc1-c1ccc(C#N)c2ccccc12)C(=O)O [2-((3-(4-cyanonaphthalen-1-yl)pyridin-4-yl)thio)-2-methylpropanoic acid],% sUA change (from baseline),Time 0 (baseline),0%
same,Absolute sUA concentration,Time 0 (baseline),5.4 mg/dL and 5.2 mg/dL and 8.0 mg/dL and 7.3 mg/dL and 6.8 mg/dL and 6.6 mg/dL and 6.4 mg/dL and 6.2 mg/dL and 5.6 mg/dL
same,% sUA change (from baseline),Time 6,−25.9% and −32.7% and −22.5% and −28.8% and −31.8% and −35.9% and −35.3% and −32.3% and −26.8%
same,Absolute sUA concentration,Time 6,4.0 mg/dL and 3.5 mg/dL and 6.2 mg/dL and 5.2 mg/dL and 4.4 mg/dL and 4.5 mg/dL and 4.1 mg/dL (2×) and 4.2 mg/dL
same,% sUA change (from baseline),Time 12,−29.6% and −42.3% and −18.8% and −35.6% and −39.7% and −51.5% and −45.3% and −35.7% and −32.3%
same,Absolute sUA concentration,Time 12,3.8 mg/dL and 3.0 mg/dL and 6.5 mg/dL and 4.7 mg/dL and 4.1 mg/dL and 3.2 mg/dL and 3.5 mg/dL and 4.2 mg/dL and 3.6 mg/dL
same,% sUA change (from baseline),Time 24,−33.3% and −38.5% and −15.0% and −28.8% and −41.2% and −50.0% and −34.4% and −32.3% and −14.3%
same,Absolute sUA concentration,Time 24,3.6 mg/dL and 3.2 mg/dL and 6.8 mg/dL and 5.2 mg/dL and 4.0 mg/dL and 3.3 mg/dL and 4.2 mg/dL (2×) and 4.8 mg/dL
same,% sUA change (from baseline),Time 48,−37.0% and −36.5% and −31.3% (2×) and −30.1% and −51.5% and −45.5% and −35.5% and −16.1%
same,Absolute sUA concentration,Time 48,3.4 mg/dL and 3.3 mg/dL (2×) and 5.5 mg/dL and 5.1 mg/dL and 3.6 mg/dL and 4.4 mg/dL and 4.0 mg/dL and 4.7 mg/dL
same,% sUA change (from baseline),Time 72,−51.9% and −57.7% and −45.0% and −45.2% and −60.3% and −54.5% and −43.8% and −51.6% and −37.5%
same,Absolute sUA concentration,Time 72,2.6 mg/dL and 2.2 mg/dL and 4.4 mg/dL and 4.0 mg/dL and 2.7 mg/dL and 3.0 mg/dL (2×) and 3.6 mg/dL and 3.5 mg/dL
same,% sUA change (from baseline),Time 96,−53.7% and −57.7% and −51.3% and −49.3% and −66.2% and −56.1% and −51.6% and −54.8% and −42.9%
same,Absolute sUA concentration,Time 96,2.5 mg/dL and 2.2 mg/dL and 3.9 mg/dL and 3.7 mg/dL and 2.3 mg/dL and 2.9 mg/dL and 3.1 mg/dL and 2.8 mg/dL and 3.2 mg/dL
same,% sUA change (from baseline),Time 102,−50.0% (2×) and −65.4% and −51.3% and −57.5% and −64.7% and −54.5% and −46.9% and −56.5%
same,Absolute sUA concentration,Time 102,2.7 mg/dL (2×) and 1.8 mg/dL and 3.9 mg/dL and 3.1 mg/dL and 2.4 mg/dL and 3.0 mg/dL and 3.4 mg/dL and 2.8 mg/dL
same,% sUA change (from baseline),Time 108,−50.0% (2×) and −63.5% and −51.3% and −58.9% and −69.1% and −65.2% and −51.6% and −54.8%
same,Absolute sUA concentration,Time 108,2.7 mg/dL and 1.9 mg/dL and 3.9 mg/dL and 3.0 mg/dL and 2.1 mg/dL and 2.3 mg/dL and 3.1 mg/dL and 2.8 mg/dL (2×)
same,% sUA change (from baseline),Time 120,−46.3% and −51.9% and −42.5% and −47.9% and −60.3% and −56.1% and −40.6% and −41.9% and −35.7%
same,Absolute sUA concentration,Time 120,2.9 mg/dL (2×) and 2.5 mg/dL and 4.6 mg/dL and 3.8 mg/dL (2×) and 2.7 mg/dL and 3.6 mg/dL (2×)
same,% sUA change (from baseline),Time 144,−44.4% and −50.0% and −40.0% and −52.1% and −58.8% and −53.0% and −40.6% and −24.2% and −35.7%
same,Absolute sUA concentration,Time 144,3.0 mg/dL and 2.6 mg/dL and 4.8 mg/dL and 3.5 mg/dL and 2.8 mg/dL and 3.1 mg/dL and 3.8 mg/dL and 4.7 mg/dL and 3.6 mg/dL
same,% sUA change (from baseline),Time 168,−53.7% and −53.8% and −38.7% and −56.2% and −64.7% and −56.1% and −48.4% and −33.9% and −41.1%
same,Absolute sUA concentration,Time 168,2.5 mg/dL and 2.4 mg/dL (2×) and 4.9 mg/dL and 3.2 mg/dL and 2.9 mg/dL and 3.3 mg/dL (2×) and 4.1 mg/dL
same,% sUA change (from baseline),Time 192,−57.4% and −57.7% and −47.5% and −58.9% and −70.6% and −65.2% and −50.0% (2×) and −44.6%
same,Absolute sUA concentration,Time 192,2.3 mg/dL (2×) and 2.2 mg/dL and 4.2 mg/dL and 3.0 mg/dL and 2.0 mg/dL and 3.2 mg/dL and 3.1 mg/dL (2×)
same,% sUA change (from baseline),Time 216,−51.9% (2×) and −43.8% and −56.2% and −64.7% and −56.1% and −48.4% and −37.5%
same,Absolute sUA concentration,Time 216,2.6 mg/dL and 2.5 mg/dL and 4.5 mg/dL and 3.2 mg/dL (2×) and 2.4 mg/dL and 2.9 mg/dL and 3.5 mg/dL
same,% sUA change (from baseline),"Time 222, post dosing",−51.9% and −55.8% and −51.3% and −64.4% and −69.1% and −60.6% and −56.5% and −39.3%
same,Absolute sUA concentration,"Time 222, post dosing",2.6 mg/dL (3×) and 2.3 mg/dL and 3.9 mg/dL and 2.1 mg/dL and 2.7 mg/dL and 3.4 mg/dL
same,% sUA change (from baseline),"Time 228, post dosing",−50.0% and −55.8% and −53.8% and −67.1% and −69.1% and −65.2% and −54.7% and −59.7% and −44.6%
